Patent publication US4636490A (Sanofi, priority 1983, dated 1987)
HELM strings list residues between dots; [ac] is acetyl, [am] amide, other brackets name non-standard units.

assay: general procedure: solution-phase peptide synthesis; p-nitrophenyl (ONp) active esters with HOBt and DIEA; details: coupling step, trifluoroacetate

| Substance | step yield [%] |
| --- | --- |
| Boc-Gly-Trp-Met-Asp(βOBzl)-NH2 | 86 |
| Boc-Met-Gly-Trp-Met-Asp(βOBu^t)-NH2 | 75 |
| Boc-Tyr-Gly-Trp-Met-Asp(βOBzl)-NH2 | 72 |
| Z-Glu(OBut)-Ala-Tyr-Gly ester (step d) | 85 |
| Z-Gly-Trp-Met-Asp(βOBu^t)-NH2 | 75 |
| protected heptapeptide of Z-Glu-Ala-Tyr-Gly-Trp-Met-Asp-NH2 | 72 |

same assay, conditions: late stage modification step, trifluoroacetate

| Substance | step yield [%] |
| --- | --- |
| --H--Met--gly--Trp--Met--Asp--NH2 | 85 |
| --Z--Glu--Ala--Tyr--Gly--Trp--Met--Asp--NH2 | 97 |
| PEPTIDE1{[Boc].Y.G.W.M.D.[am]}$$$$V2.0 | 56 |
| Z--Tyr(HSO3)--Met--Gly--Trp--Met--Asp--NH2 | 55 |
| Z-Glu(γOBut)-Ala-Tyr-Gly-OH | 75 |
